{
  "sequences": {"note": "Chains of the proteins cited; added tags and fusions are not shown. Lines headed by an entry give the natural chain unless they say otherwise; changes in a name come on top.", "UniProt Q8C6B2": "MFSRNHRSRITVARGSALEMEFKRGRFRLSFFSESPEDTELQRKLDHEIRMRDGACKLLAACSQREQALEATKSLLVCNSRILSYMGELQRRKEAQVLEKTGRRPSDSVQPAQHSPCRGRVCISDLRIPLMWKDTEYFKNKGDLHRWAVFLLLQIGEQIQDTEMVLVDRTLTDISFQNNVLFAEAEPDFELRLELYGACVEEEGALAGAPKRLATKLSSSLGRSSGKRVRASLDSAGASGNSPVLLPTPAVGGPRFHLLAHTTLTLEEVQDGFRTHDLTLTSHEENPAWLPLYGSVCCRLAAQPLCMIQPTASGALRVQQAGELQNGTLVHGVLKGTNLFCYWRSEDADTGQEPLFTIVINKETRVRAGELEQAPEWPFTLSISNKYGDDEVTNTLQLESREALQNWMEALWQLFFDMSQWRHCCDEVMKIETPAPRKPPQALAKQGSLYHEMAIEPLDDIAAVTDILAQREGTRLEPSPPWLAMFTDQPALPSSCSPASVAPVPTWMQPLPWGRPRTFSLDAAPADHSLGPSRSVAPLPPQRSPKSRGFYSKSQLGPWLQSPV", "UniProt P61586": "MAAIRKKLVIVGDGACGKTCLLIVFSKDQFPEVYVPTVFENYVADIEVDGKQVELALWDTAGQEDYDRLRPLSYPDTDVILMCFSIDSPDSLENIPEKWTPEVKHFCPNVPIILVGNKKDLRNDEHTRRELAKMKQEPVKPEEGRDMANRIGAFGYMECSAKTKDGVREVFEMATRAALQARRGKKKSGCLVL"},
  "source": "paper PMC2681257",
  "target": "glutathione-S-transferase: rhotekin Rho-binding domain fusion protein (UniProt Q8C6B2)",
  "test": "pull-down; Rho pulldown assay: 30 μg GST-RBD preloaded on Glutathione-Sepharose 4B beads, 600 μl cell lysate (HEK 293 lines or 1° h.AoSMCs, serum starved, treated with vehicle or U46619, with or without Cicaprost, SIN-1, FK409, BW245C, siRNA or dominant negative Gα); immunoblot with anti-RhoA; only the target purified",
  "note": "Results are given in words; binding and its absence hold for the method and conditions named. Binding seen in cells or lysates may run through a third protein. Binding calls can cover weak binding; strength is not graded here.",
  "data": [
    {"substance": "RhoA (active, GTP-bound) (from UniProt P61586 1-193)", "values": [
      {"measurement": "binding", "value": "binds"}
    ]}
  ]
}
